Data taken from PubChem BioAssay AID2685 (National Center for Advancing Translational Sciences (NCATS), 2010).
The other results are listed elsewhere or left out. The main result of the screen is listed elsewhere. These columns were measured beside it and carry no call. The list favours compounds with an active or inconclusive main result. Potencies come from curve fits of mixed quality, noted in brackets.

Experiment: qHTS Assay for Lipid Storage Modulators in Drosophila S3 Cells;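 as to cell number change: cells counted by Cell Tracker Red CMTPX staining in the red channel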
Settings: BODIPY lipid droplet fluorescence, 18-24 h; for cell number change: measured here: cell count max response, cells fed with added oleic acid
Method in brief: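 Laser-scanning cytometry quantifies lipid droplet accumulation (500–530 nm total intensity; droplet/cell object ratio) in oleic acid-fed (400 uM added) Drosophila S3 cells treated with a concentration series. 20 uM Triacsin C defined 100% inhibition.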

[1] = measured here: cell number channel AC50, cells fed with added oleic acid
[2] = measured here: lipid fluorescence (Fed channel) AC50, cells fed with added oleic acid

SMILES | cell number change [%] | AC50 [1] | AC50 [2]
N#Cc1nccnc1S(=O)(=O)c1cccs1 | -63.7 | 3.66 µM [falling, full curve] | 3.26 µM [falling, full curve]
O=C(C[n+]1cc2ccccc2c2ccccc21)c1ccccc1 | 33.3 | 0.291 µM [rising, full curve, poor fit] | –
Cc1nnc(-c2ccc(Oc3ccc(Cl)cc3)c([N+](=O)[O-])c2)o1 | -55.3 | 20.6 µM [falling, single point] | 29.1 µM [falling, single point]
OC1(c2ccccc2)CN(c2ccccc2)C2=[N+]1CCS2 (centres undefined) | 43.5 | 16.4 µM [rising, single point] | –
CCS(=O)(=O)Nc1ccc(-c2nnc(SCC(=O)OC)o2)cc1 | -5.45 | – | 5.8 µM [falling, full curve, poor fit]
O=C(O)c1ccc(Nc2ncnc3c2cnn3Cc2ccccc2)cc1 | 7.51 | – | 0.146 µM [falling, full curve, poor fit]
Cc1cc(C(=O)CSc2n[nH]c(N)n2)c(C)n1-c1ccccc1 | 39.3 | 0.103 µM [rising, full curve] | 1.3 µM [rising, partial curve]
N#Cc1cccc(NC(=O)COC(=O)c2cccc(N3C(=O)c4ccccc4C3=O)c2)c1 | -3.19 | – | 1.64 µM [rising, partial curve, poor fit]
CCN(CC)C(=O)Oc1ccc2c(c1)O/C(=C\c1ccco1)C2=O | 16.3 | – | –
NC(=O)c1c(NC(=O)c2cccs2)sc2c1CCCCCC2 | 14.1 | 0.058 µM [rising, full curve, poor fit] | –
O=C(OCC(=O)N1CCN(C(=O)c2ccco2)CC1)c1cc(-c2ccc(F)cc2)nc2ccccc12 | -9.39 | – | 0.731 µM [rising, single point]
Cc1ccc(-c2nc(CS(=O)CC(=O)NC3CCCCC3)c(C)o2)cc1 (centres undefined) | -3.77 | – | 20.6 µM [falling, single point]
O=C(CNC(=O)c1ccc(F)cc1)NCc1ccc(S(=O)(=O)N2CCOCC2)cc1 | 75 | 29.1 µM [rising, single point] | –
C=CCNC(=S)N(Cc1ccccc1)Cc1ccc(F)cc1 | 12.5 | – | –
CC1CC(=O)c2cnc(NCc3ccco3)nc2C1 (centres undefined) | 15.8 | – | 9.2 µM [rising, partial curve]
COc1ccc2nc(NCc3cccnc3)sc2c1 | -6.88 | – | –
COc1ccccc1C(=O)Nc1ccccn1 | – | – | 6.51 µM [rising, single point]
O=C(O)/C=C/C(=O)Nc1ccc(OC(F)F)cc1 | – | – | 6.51 µM [falling, single point]
COc1ccc(NC(=O)NC23CC4(C)CC(C)(CC(C)(C4)C2)C3)cc1OC | -15.7 | – | 29.1 µM [falling, single point]
N#Cc1cccc(NCC(=O)Nc2cccc(S(=O)(=O)N3CCCCC3)c2)c1 | 2.32 | – | 4.61 µM [rising, full curve, poor fit]

A few values from above:
Entry for `COc1ccc2nc(NCc3cccnc3)sc2c1` under cell number change [%]: -6.88
Entry for `COc1ccc(NC(=O)NC23CC4(C)CC(C)(CC(C)(C4)C2)C3)cc1OC` under cell number change [%]: -15.7

More structures:

SMILES | cell number change [%] | AC50 [1] | AC50 [2]
CCCCCCCCn1cnc2c(N)c(C)c(C)cc21 | -31.9 | 29.1 µM [falling, single point] | –
CCCn1c(SCC(=O)N2CCCC(C)C2)nnc1-c1ccccn1 (centres undefined) | -8.65 | – | 6.51 µM [falling, partial curve]
COc1ccccc1Cc1nc2ccccc2n1S(=O)(=O)c1ccc(Cl)cc1 | 1.48 | – | 1.3 µM [rising, full curve]
CCn1c2ccccc2c2cc(NC(=O)CSc3nnc(-c4cccc(C)c4)o3)ccc21 | 13.6 | – | 6.51 µM [rising, single point]
COc1cccc(NC2=NC3(CCCCC3)N=C(N)N2)c1 | – | – | 18.4 µM [falling, single point]
O=C(c1ccco1)N1CCN(CC(O)COc2ccc3oc4ccccc4c3c2)CC1 (centres undefined) | -32.5 | – | 16.4 µM [rising, partial curve, poor fit]
O=C(CSC(=S)N1CCCCC1)c1ccccc1 | 6.26 | – | 6.51 µM [rising, full curve]
Cc1csc(NC(=O)C2CCN(S(=O)(=O)c3ccc4c(c3)oc(=O)n4C)CC2)n1 | 7.71 | – | –
COc1ccc(CCNC(=O)CC2SC(N)=NC2=O)cc1OC (centres undefined) | -0.621 | – | 0.651 µM [falling, full curve, poor fit]
Cc1ccc(S(=O)(=O)N2CCCN(C(=O)c3ccc(-n4nccc4C)cc3)CC2)cc1 | 68.5 | 16.4 µM [rising, single point] | –
Cc1ccc2c(CSc3nnc4ccccn34)cc(=O)oc2c1C | 22.5 | – | 16.4 µM [rising, partial curve, poor fit]
O=C(N/N=C/C=C/c1ccccc1)c1cc2c(ccc3ccccc32)o1 | -24.1 | – | 20.6 µM [falling, single point]
O=C(CSc1nc(=O)n(CCCN2CCOCC2)c2c1CCCC2)Nc1ccc(Cl)cc1 | – | 0.58 µM [rising, single point] | –
CC(C)Oc1ccc(CCC(=O)NNC(=S)NCc2ccccc2)cc1 | 16.1 | 2.59 µM [rising, single point] | 1.84 µM [rising, partial curve]
COC(=O)c1c(NC(=O)c2ccn(C)n2)sc2c1CCC2 | -18.6 | – | 31.6 µM [falling, partial curve]
COc1cc(NC(=S)Nc2ccc3c(c2)OCCO3)cc(OC)c1OC | – | – | 29.1 µM [rising, single point]
O=C(CN(CCc1ccccc1)S(=O)(=O)c1ccc(Cl)cc1)N/N=C/c1ccccc1C(=O)O | 46.6 | 11.6 µM [rising, partial curve] | –
O=C(Nc1cccc(C(=O)N2CCCCCC2)c1)c1ccco1 | -31.8 | 29.1 µM [falling, partial curve, poor fit] | 13 µM [falling, partial curve]
COC(=O)/C=C1\SC(=Nc2ccc(OC)cc2)NC1=O | 13.4 | 1.64 µM [rising, partial curve, poor fit] | –
